In PMC3716638:
No constants are given. Whether binding was seen depends on the method and setting. For part of these data: Binding seen in cells or lysates may run through a third protein. Some results given as binding are weak or reduced against the parent protein; the word gives no strength.

Protein sequences, listed by entry. Tags and fused reporters are not part of them. Residues count along the entry.
UniProt Q03405, residues 23-305: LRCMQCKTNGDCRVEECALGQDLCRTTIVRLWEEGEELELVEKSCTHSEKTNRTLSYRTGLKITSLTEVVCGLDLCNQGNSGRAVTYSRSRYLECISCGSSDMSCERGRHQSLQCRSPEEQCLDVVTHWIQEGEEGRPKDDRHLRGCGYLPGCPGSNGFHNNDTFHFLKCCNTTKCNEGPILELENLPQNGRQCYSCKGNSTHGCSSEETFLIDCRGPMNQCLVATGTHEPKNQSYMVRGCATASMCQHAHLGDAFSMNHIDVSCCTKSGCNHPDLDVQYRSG
UniProt P06733: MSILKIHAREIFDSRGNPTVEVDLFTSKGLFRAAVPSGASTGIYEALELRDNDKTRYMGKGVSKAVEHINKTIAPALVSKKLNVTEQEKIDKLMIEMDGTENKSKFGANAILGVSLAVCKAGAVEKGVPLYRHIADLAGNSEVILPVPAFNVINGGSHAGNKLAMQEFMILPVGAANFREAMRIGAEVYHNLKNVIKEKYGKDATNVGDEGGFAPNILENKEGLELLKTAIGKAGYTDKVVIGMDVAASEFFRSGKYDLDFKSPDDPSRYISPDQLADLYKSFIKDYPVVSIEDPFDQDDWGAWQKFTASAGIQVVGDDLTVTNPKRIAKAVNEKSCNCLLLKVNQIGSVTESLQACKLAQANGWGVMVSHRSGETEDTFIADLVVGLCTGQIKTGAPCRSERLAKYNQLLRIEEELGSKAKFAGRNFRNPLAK

Tests used:
ovalbumin (OVA) = ovalbumin (OVA) (UniProt P01012); assay: far-Western, overlay or dot blot; cell-free dot blot: 1 µg of each protein (PLG, ENO1, uPAR, uPA, OVA) dotted on nitrocellulose, blocked with 5% BSA/PBS, each strip incubated with 1 µg/ml of uPA, uPAR, ENO1 or PLG in PBS for 1 h at room temperature, washed with PBS 0.1% Tween 20, detected with the Ab against the soluble protein and ECL; both purified
[1] = biological target: urokinase-type plasminogen activator receptor (uPAR), endogenous in human PE089 lung cancer cells (human (endogenous in PE089)) (UniProt Q03405); assay: proximity ligation; Duolink in situ PLA on paraformaldehyde-fixed LLC/luc and PE089 cells; ENO1-specific Ab together with Ab against uPA, uPAR or PLG; signal means the two proteins are within 40 nm
[2] = biological target: urokinase-type plasminogen activator receptor (uPAR), endogenous in human PE089 lung cancer cells (human (endogenous in PE089)) (UniProt Q03405); assay: co-IP; 50 µg cell lysate of PE089 or LLC/luc incubated with 2 µg anti-plasminogen, anti-uPA, anti-uPAR or isotype-control Ab overnight at 4°C, protein A/G Sepharose; blot probed with anti-human ENO1 Ab or mENO1 Ab

“urokinase-type plasminogen activator receptor (uPAR), protein used in the cell-free dot blotting assay (from UniProt Q03405 23-305)” was tested, and the binding (ovalbumin (OVA)) was “no binding (tested: 1 µg/ml)”.
“α-enolase (ENO1), endogenous in human PE089 lung cancer cells (from UniProt P06733 1-434)” was tested, and the binding [1] was “binds” and the binding [2] was “binds”.
